From US20050208031A1, “Inhibition of calcium-independent phospholipases A2beta or A2gamma inhibit hormone-induced differentiation of 3T3-L1 preadipocytes” (priority 2003, published 2005)
At least one structure is not confirmed: it was looked up by name or label, or the drawing left a doubt.

Tested on: PPARγ
Assay: Troglitazone rescue of differentiation in 3T3-L1 cells after iPLA2 knockdown or inhibition
Format: cell-based
Details: 10 μM troglitazone

With Cc1c(C)c2c(c(C)c1O)CCC(C)(COc1ccc(CC3SC(=O)NC3=O)cc1)O2 (centres unmarked) [Troglitazone, troglitazone] the “differentiation process after treatment with siRNA against iPLA2β or iPLA2γ” value was “allowed completion of differentiation process” and the “expression of PPARγ and C/EBPα in presence of siRNA against iPLA2β or iPLA2γ” value (day 8 nuclear extracts, FIG. 9) was “rescued the expression”.
